Data as given in PubChem BioAssay AID602196 (INSERM, 2012).
In all, the deposit lists about 23,000 reagents; this is a part drawn at random. 455 of them (2%) count as active. 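Active includes both protection and sensitisation; some change values fall well beyond the stated -50 to +50 range.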 Not all columns of the deposit are shown. The record does not give: the amount of reagent.

Screen: 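Modifiers of cisplatin sensitivity in A549 cells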
Cell system: human A549 lung cancer cells
Reagent: siRNA pair against human genes
Time to read-out: 48 h transfection before cisplatin; time from cisplatin to read-out not stated
Treatment: cisplatin at a dose killing half of control-siRNA cells; exact dose and duration not given
Read-out: 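Shift in cisplatin death relative to control siRNA, from -50 (all cells die) to +50 (no cells die); siRNAs harmful on their own scored 0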
Reading the numbers: two-siRNA summed score (-2 to +2): higher = both siRNAs protect from cisplatin killing; -2 means both sensitise; mean protection from cisplatin (shift in death): higher = protection from cisplatin killing
Active means: 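Each siRNA scores 0 if harmful alone by LDH or WST-1, otherwise +1 if it reduces and -1 if it increases cisplatin killing; a gene is active when both siRNAs agree (sum +2 or -2)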
Meaning of the calls: active = both siRNAs shift cisplatin killing the same way; inactive = no consistent shift, or siRNA harmful alone

What is on record for HOOK3?
two-siRNA summed score (-2 to +2): 0; mean protection from cisplatin (shift in death) (%): -0.7; Outcome: inactive

Which result is listed for TRIM15?
two-siRNA summed score (-2 to +2): -1; mean protection from cisplatin (shift in death) (%): -6.6; Outcome: inactive

How did the screen score VASP?
two-siRNA summed score (-2 to +2): 0; mean protection from cisplatin (shift in death) (%): -6.8; Outcome: inactive

Which result is listed for TMEM61?
two-siRNA summed score (-2 to +2): 0; mean protection from cisplatin (shift in death) (%): -3.3; Outcome: inactive

For SNU13, how do the results read?
two-siRNA summed score (-2 to +2): 0; mean protection from cisplatin (shift in death) (%): 22.7; Outcome: inactive

For PCDHGA12, what does the deposit list?
two-siRNA summed score (-2 to +2): 2; mean protection from cisplatin (shift in death) (%): 20.9; Outcome: active

What did the screen give for MATCAP2?
two-siRNA summed score (-2 to +2): 0; mean protection from cisplatin (shift in death) (%): 6.5; Outcome: inactive

With SLC40A1, what was measured?
two-siRNA summed score (-2 to +2): 0; mean protection from cisplatin (shift in death) (%): 8.5; Outcome: inactive

What did the screen give for MAGEB10?
two-siRNA summed score (-2 to +2): 0; mean protection from cisplatin (shift in death) (%): 7.5; Outcome: inactive

For LOC442690, how do the results read?
two-siRNA summed score (-2 to +2): 1; mean protection from cisplatin (shift in death) (%): 10; Outcome: inactive

How did the screen score SIGLEC1?
two-siRNA summed score (-2 to +2): 0; mean protection from cisplatin (shift in death) (%): -0.9; Outcome: inactive

What did the screen give for RPLP0?
two-siRNA summed score (-2 to +2): 0; mean protection from cisplatin (shift in death) (%): 3.9; Outcome: inactive

With LOC440958, what does the deposit list?
two-siRNA summed score (-2 to +2): 0; mean protection from cisplatin (shift in death) (%): 8.9; Outcome: inactive

Which result is listed for LOC388508?
two-siRNA summed score (-2 to +2): 0; mean protection from cisplatin (shift in death) (%): 12.5; Outcome: inactive

Which result is listed for PRAP1?
two-siRNA summed score (-2 to +2): 0; mean protection from cisplatin (shift in death) (%): 10.3; Outcome: inactive

What is on record for U2AF2?
two-siRNA summed score (-2 to +2): 1; mean protection from cisplatin (shift in death) (%): 5.1; Outcome: inactive

For BBX, how do the results read?
two-siRNA summed score (-2 to +2): 0; mean protection from cisplatin (shift in death) (%): -8.6; Outcome: inactive

For TNPO2, what was measured?
two-siRNA summed score (-2 to +2): 0; mean protection from cisplatin (shift in death) (%): 0; Outcome: inactive

With CHRND, what does the deposit list?
two-siRNA summed score (-2 to +2): 0; mean protection from cisplatin (shift in death) (%): -1.2; Outcome: inactive

What is on record for FXYD7?
two-siRNA summed score (-2 to +2): 0; mean protection from cisplatin (shift in death) (%): 4.5; Outcome: inactive

Which result is listed for IL33R?
two-siRNA summed score (-2 to +2): 0; mean protection from cisplatin (shift in death) (%): -10.6; Outcome: inactive

How did the screen score TOP3A?
two-siRNA summed score (-2 to +2): 0; mean protection from cisplatin (shift in death) (%): 11.5; Outcome: inactive

With CIRBP-AS1, what does the deposit list?
two-siRNA summed score (-2 to +2): 0; mean protection from cisplatin (shift in death) (%): 6.7; Outcome: inactive

How did the screen score ART3?
two-siRNA summed score (-2 to +2): 0; mean protection from cisplatin (shift in death) (%): 10.5; Outcome: inactive

For LTBR, what was measured?
two-siRNA summed score (-2 to +2): 1; mean protection from cisplatin (shift in death) (%): 25.7; Outcome: inactive

7 of these entries, set out differently:
target,two-siRNA summed score (-2 to +2),mean protection from cisplatin (shift in death) (%),Outcome
PCDHGA12,2,20.9,active
MATCAP2,0,6.5,inactive
SLC40A1,0,8.5,inactive
MAGEB10,0,7.5,inactive
LOC442690,1,10,inactive
SIGLEC1,0,-0.9,inactive
RPLP0,0,3.9,inactive

Further reagents follow.
Which result is listed for LOC441502?
two-siRNA summed score (-2 to +2): 0; mean protection from cisplatin (shift in death) (%): 30.2; Outcome: inactive

How did the screen score LOC143506?
two-siRNA summed score (-2 to +2): 1; mean protection from cisplatin (shift in death) (%): 6.7; Outcome: inactive

For NELFE, what was measured?
two-siRNA summed score (-2 to +2): 1; mean protection from cisplatin (shift in death) (%): 6.4; Outcome: inactive

What is on record for TMEM208?
two-siRNA summed score (-2 to +2): 0; mean protection from cisplatin (shift in death) (%): 1.3; Outcome: inactive

For GLS, what was measured?
two-siRNA summed score (-2 to +2): 1; mean protection from cisplatin (shift in death) (%): 5.6; Outcome: inactive

What is on record for LOC150739?
two-siRNA summed score (-2 to +2): 0; mean protection from cisplatin (shift in death) (%): 17.1; Outcome: inactive

What is on record for C9orf85?
two-siRNA summed score (-2 to +2): 1; mean protection from cisplatin (shift in death) (%): 9.8; Outcome: inactive

With LOC440115, what does the deposit list?
two-siRNA summed score (-2 to +2): 0; mean protection from cisplatin (shift in death) (%): 24.6; Outcome: inactive

For LOC440492, what does the deposit list?
two-siRNA summed score (-2 to +2): 0; mean protection from cisplatin (shift in death) (%): 5; Outcome: inactive

What is on record for BCORP1?
two-siRNA summed score (-2 to +2): 1; mean protection from cisplatin (shift in death) (%): 6; Outcome: inactive

For LHFPL3, what does the deposit list?
two-siRNA summed score (-2 to +2): -1; mean protection from cisplatin (shift in death) (%): -3; Outcome: inactive

For AP5M1, what does the deposit list?
two-siRNA summed score (-2 to +2): 0; mean protection from cisplatin (shift in death) (%): 4.5; Outcome: inactive

With LY6G6E, what was measured?
two-siRNA summed score (-2 to +2): 0; mean protection from cisplatin (shift in death) (%): -1.5; Outcome: inactive

With NLRP1, what does the deposit list?
two-siRNA summed score (-2 to +2): -2; mean protection from cisplatin (shift in death) (%): -43.4; Outcome: active

What did the screen give for TXNRD3?
two-siRNA summed score (-2 to +2): 0; mean protection from cisplatin (shift in death) (%): -4.7; Outcome: inactive
